In PubChem BioAssay AID1794845 (National Center for Advancing Translational Sciences (NCATS), 2023):
Fewer than 10 of roughly 6,900 compounds were called active. The call rests on the fitted dose curve; in most records, active means well fitted curve in the direction sought with a large enough effect; inconclusive means small, poorly fitted or top-dose-only effect, or another doubt; inactive means no such curve, though single readings can be large or run the other way. The list shows a part of the results.

Amino acid sequences for entries named in this document (tags omitted). A change or cut given only in a name is not applied to a line headed by its entry.
UniProt C7C422: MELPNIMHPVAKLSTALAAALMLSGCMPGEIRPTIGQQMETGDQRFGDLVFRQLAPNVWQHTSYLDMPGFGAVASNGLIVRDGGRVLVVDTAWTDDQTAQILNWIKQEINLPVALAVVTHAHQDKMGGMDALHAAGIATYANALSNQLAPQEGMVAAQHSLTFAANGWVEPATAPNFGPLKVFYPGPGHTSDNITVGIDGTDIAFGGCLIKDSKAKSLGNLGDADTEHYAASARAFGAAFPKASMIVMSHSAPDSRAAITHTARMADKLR

Biological target: Metallo-beta-lactamase type 2 (Klebsiella pneumoniae) (UniProt C7C422)
Assay: qHTS to identify inhibitors of the New Delhi Metallo-beta-lactamase (NDM): primary screen against the NCATS Gemini Collection; further: % of control where 0% means no effect
Settings: NDM-1 enzyme, meropenem hydrolysis, absorbance 300 nm; at 38.4 µM (top of the series) unless noted
How it was run: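 NDM-1 at 2 nM final in 50 mM HEPES pH 7.0, 1 uM ZnSO4, 0.01% Tween20, preincubated >30 min with compound. Meropenem 50 uM final added; absorbance at 300 nm after 30 min.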

Activity % (negative = inhibition), inactive:
O=C(c1cnccn1)N1CCC(Oc2cccnc2)C1 (stereo not given) 0.376%
COc1ccc(-c2nc(-c3ccccc3)nc3c2CN([S+](=O)([O-])c2cccs2)CC3)cc1 1.57%
FC(F)(F)c1ccc(O[C@H]2COCCN(Cc3cccnc3)C2)nc1 0.0862% [at 57.5 µM]
Cc1cc(C[C@@H]2COC[C@@H]2NC(=O)CCc2nc(-c3ccco3)no2)on1 10.4%
CCCCc1ccc(-n2cc(CN3CCN(C(C)=O)CC(O)C3)cn2)cc1 (stereo not given) 19.4%
CC(C)N1CC[C@@H]2[C@H]1C(=O)NC[C@H](CCC(=O)NCc1ccc(F)cc1)N2C 28% [at 57.5 µM]
O=C(c1ccc2ncccc2c1)N1CC(n2ccnc2)C1 0.214%
COc1cccc(CN2CCC3(CC2)COc2ccccc2CN3)c1 0.573%
CC(C)CCNC(=O)N1c2ccccc2CC1c1noc(C2CCOCC2)n1 (stereo not given) 9.3%
Cn1c(Cn2cccn2)nnc1C1CC(Nc2ncnc3sccc23)C1 (stereo not given) 11.8%
COc1ncccc1C(=O)N1CCc2onc(-c3cccc4ccccc34)c2C1 5.17%
COc1ccccc1-c1ccc(C(=O)N2C[C@@H](N(C)C)[C@H](C(C)C)C2)cc1 2.37%
COCC(=O)N1CCC[C@@H]1C(=O)N1CCC(N2CCOC2=O)CC1 -3% [at 57.5 µM]
O=C(C1CC(=O)N(C2CC2)C1)N1CCC(Oc2ccccc2Cl)CC1 (stereo not given) -1.39%
CCC(=O)N1CCC(OC2CCN(C(=O)CC3CCCCC3)CC2)CC1 -1.04%
Cc1n[nH]c(C)c1CNC(=O)C1CCN(c2cn[nH]c(=O)c2)C1 (stereo not given) 10.8%
NCCc1noc(Cc2ccccc2)n1 12.1%
O=C(CCc1nc2ccccc2s1)N[C@@H]1CCOC[C@H]1OCCO 10.1%
CC1=C[C@@H](CNC2CCOCC2)[C@H](C(C)C)C[C@H]1Cc1nc2ccc(F)cc2[nH]1 -1.97% [at 57.5 µM]
Cc1nc(N2CCN(C(=O)C(C)Oc3ccccc3)CC2)cc(C(F)(F)F)n1 (stereo not given) 0.792%
O=C(NC[C@H]1OC[C@@H](NCc2ncc[nH]2)[C@@H]1O)c1cccs1 0.861% [at 57.5 µM]
Cc1noc2c(NC3CCN(C)CC3)cc(-c3cccs3)nc12 2.43% [at 57.5 µM]
Cn1c(=O)[nH]cc(CC(=O)NCc2cccnc2-n2ccnc2)c1=O 10.9%
Cc1ccccc1CN1CCn2c(nn(CC3COc4ccccc4O3)c2=O)C1=O (stereo not given) -8.83%
O=C1CC(c2nc(-c3cn4ccccc4n3)no2)CN1Cc1ccncc1 (stereo not given) 13.7%
Cc1cnc(-c2ccccc2)n1CC1CCN(S(=O)(=O)Cc2ccccc2F)CC1 -2.5%
Cn1nc(C(=O)NC2CC2)c2c1CN(C(=O)Cc1cccc(F)c1)C2 0.284%
CNc1nc2c(c(C(=O)N3CCCC3)n1)CN(CC1(O)CCNC1)CC2 (stereo not given) 18.1%
COCC1CN(C2CCC2)CC12CCN(C(=O)NCCc1ccccc1)CC2 (stereo not given) 1.49%
Cc1noc(C)c1C(=O)N1CCOc2ccc(CCC(=O)NCC3CC3)cc2C1 -0.838%
O=C(c1ccccn1)N1CCN(C(=O)N2CC3CC(C2)[C@H]2CCCC(=O)N2C3)CC1 (stereo not given in full) -2.06%
O=C(Nc1ccc(F)cc1)c1ccn2cncc2c1 18.5% [at 57.5 µM]
CCCc1cc(C(=O)N[C@@H]2CCOC[C@H]2OCCO)n(C)n1 -0.104%
C=CCC1(CO)CCCN(Cc2nc(C)cc(-c3ccccc3)n2)C1 (stereo not given) 20.6%
CN(Cc1ccc2nccnc2c1)C(=O)c1cc(COc2ccc(F)cc2F)on1 3.52%
CN(C)c1ccc(C(=O)N[C@H]2C[C@@H](c3nc(-c4ccc5ccccc5c4)no3)N(C)C2)cc1 17.5%
O=C(NCc1ccco1)C1COC2(CCN(C(=O)c3ccc(F)cc3)CC2)N1C(=O)c1ccco1 (stereo not given) 10.9%
Cc1c(CN2CCCC23CCN(c2ccc(C(F)(F)F)cn2)CC3)cc(C#N)n1C 0.849%
COc1cccc(CC(=O)N2CC[C@H](CO)[C@H](NC(=O)C3CC3)C2)c1 0.647%
CC(C)n1cc2cc(C(=O)Nc3ccc4c(c3)OCCO4)sc2c1 7.08%
O=C(NCC1CN(C(=O)NC2CCCCC2)CC12CCCCC2)C1CC1 (stereo not given) -1.21%
Cn1cc2c3c(cccc31)CN(C(=O)c1ccccc1F)CC2 2.57%
COC[C@]1(O)CCN(C(=O)CSCc2ccccc2C)CC1(C)C 0.871%
NC(=O)CCN1CCc2onc(-c3ccccc3F)c2C1 3.18%
CN1C(=O)COC[C@@H]1[C@H](O)c1ccc(NS(=O)(=O)c2ccc(F)cc2)cc1 59.2% [at 57.5 µM]
O=C(NCCCN1CCc2ccccc2C1)C1CCc2ncc(-c3ccc(F)cc3)n2C1 (stereo not given) 7.07%
CC(C)c1ccc(CN2CCC(CNS(=O)(=O)C3CC3)C2)cc1 (stereo not given) 17.7%
CCc1nc2c(c(-c3ccc(Cl)cc3)n1)CN([S+](C)(=O)[O-])CC2 9.37% [at 57.5 µM]
Cc1cccc(C(=O)N2CCC(N3CC4CC(C3)[C@H]3CCCC(=O)N3C4)CC2)c1 (stereo not given in full) 3.71%
Cn1cc([C@@H](NC(=O)CCc2ccc(=O)[nH]n2)C2CC(O)C2)cn1 (stereo not given in full) 4.28%
CN(Cc1cnccn1)C(=O)C1CCCN(C2CCN(C(=O)C3CC3)CC2)C1 (stereo not given) -16.5%
Cc1nc(C(=O)N2CCn3nc(Cc4ccccc4)cc3C2)cs1 17.3%
O=C1Cc2c(-c3cc4ccccc4o3)n[nH]c2CN1Cc1ccccc1 6.68% [at 57.5 µM]
COC(=O)c1sccc1S(=O)(=O)N1CCN2C(=O)CN(C)C(=O)C2C1 (stereo not given) 9.99%
Cc1cnc(CC2CCN(S(=O)(=O)c3ccccc3)CC2)n1Cc1ccc(F)cc1 0.311%
O=C(CCCc1ccccc1)Nc1ccc(OC2CCNCC2)nc1 24%
O=C(CCC[C@@H]1[C@H]2CCCN3CCC[C@@H](CN1Cc1cccnc1)[C@@H]23)N1CCN(C2CCCC2)CC1 1.69%
CCOCCn1c(=O)n(C(CC)C(=O)NC(C)(C)C)c2cc(C(=O)O)cnc21 (stereo not given) -0.909%
Cc1nc(CNC(=O)[C@H]2CCC[C@@H](O)C2)nc2c1CCCC2 0.0681%
CCc1csc(CNc2cc(C3CC(O)C3)nc(N)n2)n1 (stereo not given) -11.2%
CCNC(=O)N[C@H]1CC[C@]2(C)CCC([C@H](C)C(=O)N(C)CCC#N)[C@H](O)[C@H]2[C@@H]1C (stereo not given in full) -1.35% [at 57.5 µM]
CC1=NS(=O)(=O)N(C)C=C1C(=O)OCc1nc(-c2cccc(C)c2)no1 12.3%
CC1(C(=O)NCc2cccnc2)CCCc2cnc(Nc3ccccc3F)nc21 (stereo not given) 8.04% [at 57.5 µM]
CC(C)(N)C(=O)N1CCN(c2nc(-c3ccccc3)nc3c2CCC3)CC1 21.4%
CCC1(C2CCN(C(=O)CCCc3ccccc3)CC2)NC(=O)N(CCc2scnc2C)C1=O (stereo not given) -17.2%
O=C(N[C@@H]1COCC[C@@H]1OCC1CC1)c1cc(-n2cccn2)ccc1Cl -0.841%
Cc1nc(-c2cccnc2)ncc1C(=O)N1CCC2(CC1)CC(=O)N(C)C2 2.42%
O=C(c1ccccc1)N1CC2(CCCN2CC2CC2)Cc2ccccc21 (stereo not given) 2.85%
C#CCNC(=O)C[C@@H]1C[C@@H](C(C)C)[C@H](CNS(C)(=O)=O)C=C1C 6.29% [at 57.5 µM]
C[C@]1(CO)[C@H]2Cc3sc(-c4ccccc4)nc3[C@@H](CC(=O)N3CCOCC3)[C@]2(C)CC[C@H]1O 10.5%
Cc1ccc(C)c(C(=O)N2CC(c3nnc(-c4ccncc4)o3)C3(CCOCC3)C2)c1 (stereo not given) 9.26%
O=C(NCc1nnc2n1C(C(=O)NCc1cccnc1)CC2)c1cccnc1 (stereo not given) -0.515%
Nc1nc(C2CC(N)C2)cc(N2CCCN(Cc3cccs3)CC2)n1 (stereo not given) 0.493%
CCC1(C(=O)Nc2cc(OC)ccc2OC)CCCCC(=O)N1 (stereo not given) 23.1%
COCC1CN(C)CC12CCN(S(=O)(=O)c1cccs1)CC2 (stereo not given) 4.6%
CCn1cc(CN2CC(Oc3ccc(-c4noc(-c5cccnc5)n4)cc3)C2)cn1 16.5%
c1ccc(CCCc2noc(-c3ccc(N4CCOCC4)nc3)n2)cc1 23.1%
Cc1nc(N)ncc1C(=O)N(C)Cc1cn[nH]c1-c1ccccc1 -0.485%
Cc1ccc(F)c(OC2(C(=O)O)CCN(S(=O)(=O)c3cnn(C)c3)CC2)c1 1.98%
CN1CC(=O)N(C2CCCCC2)Cc2c(NCCO)ncnc21 28.3% [at 57.5 µM]
NC1CCCCN(Cc2ccc(Cl)c(F)c2)C1 (stereo not given) -2.71%
COc1ccc2nc([C@H]3CCN(C4CCCCC4)C3)[nH]c2c1 4.41% [at 57.5 µM]
O=C(c1cc(F)ccc1F)N1CCCC(Cc2noc(-c3ccccc3)n2)C1 (stereo not given) -10.4%
COc1ccc(Nc2cnc3ccc(-c4ccc(F)cc4)nn23)cn1 -0.267% [at 57.5 µM]
CC(C)[C@@H]1CN(C(=O)CCCn2cncn2)C[C@H]1NS(=O)(=O)N(C)C 15.5%

Looked up by compound from the entries so far (five):
Activity % (negative = inhibition), inactive:
Cn1c(=O)[nH]cc(CC(=O)NCc2cccnc2-n2ccnc2)c1=O 10.9%
O=C(c1ccccn1)N1CCN(C(=O)N2CC3CC(C2)[C@H]2CCCC(=O)N2C3)CC1 (stereo not given in full) -2.06%
COc1ncccc1C(=O)N1CCc2onc(-c3cccc4ccccc34)c2C1 5.17%
CC(C)c1ccc(CN2CCC(CNS(=O)(=O)C3CC3)C2)cc1 (stereo not given) 17.7%
CC(C)n1cc2cc(C(=O)Nc3ccc4c(c3)OCCO4)sc2c1 7.08%
